In the supplement of paper PMC6411743:
± gives the standard deviation of the averaged measurements. The list shows a part of the results.

Protein sequences, listed by entry. Tags and fused reporters are not part of them. Lines headed by an entry give the natural chain unless they say otherwise; changes in a name come on top.
UniProt Q9Y3S2: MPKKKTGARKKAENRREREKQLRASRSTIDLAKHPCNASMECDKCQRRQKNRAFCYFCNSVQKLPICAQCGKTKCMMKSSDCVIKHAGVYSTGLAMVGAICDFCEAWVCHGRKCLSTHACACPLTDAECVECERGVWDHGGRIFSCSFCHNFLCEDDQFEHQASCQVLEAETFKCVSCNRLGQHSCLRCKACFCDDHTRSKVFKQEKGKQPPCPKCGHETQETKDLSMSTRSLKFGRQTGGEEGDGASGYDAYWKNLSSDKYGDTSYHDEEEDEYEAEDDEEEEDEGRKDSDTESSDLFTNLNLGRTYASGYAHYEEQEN
UniProt Q9Y5X3: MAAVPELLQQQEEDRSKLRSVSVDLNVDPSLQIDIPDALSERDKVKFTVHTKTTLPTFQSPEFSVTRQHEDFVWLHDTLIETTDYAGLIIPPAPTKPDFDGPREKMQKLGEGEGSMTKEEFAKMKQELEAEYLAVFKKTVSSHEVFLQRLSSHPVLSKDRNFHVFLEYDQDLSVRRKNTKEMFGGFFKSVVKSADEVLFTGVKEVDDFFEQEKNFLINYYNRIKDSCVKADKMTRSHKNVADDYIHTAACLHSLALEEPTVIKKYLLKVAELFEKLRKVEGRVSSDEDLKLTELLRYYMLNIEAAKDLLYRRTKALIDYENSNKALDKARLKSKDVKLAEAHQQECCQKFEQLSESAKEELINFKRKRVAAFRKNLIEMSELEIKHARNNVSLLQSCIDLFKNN
UniProt Q9UNN5: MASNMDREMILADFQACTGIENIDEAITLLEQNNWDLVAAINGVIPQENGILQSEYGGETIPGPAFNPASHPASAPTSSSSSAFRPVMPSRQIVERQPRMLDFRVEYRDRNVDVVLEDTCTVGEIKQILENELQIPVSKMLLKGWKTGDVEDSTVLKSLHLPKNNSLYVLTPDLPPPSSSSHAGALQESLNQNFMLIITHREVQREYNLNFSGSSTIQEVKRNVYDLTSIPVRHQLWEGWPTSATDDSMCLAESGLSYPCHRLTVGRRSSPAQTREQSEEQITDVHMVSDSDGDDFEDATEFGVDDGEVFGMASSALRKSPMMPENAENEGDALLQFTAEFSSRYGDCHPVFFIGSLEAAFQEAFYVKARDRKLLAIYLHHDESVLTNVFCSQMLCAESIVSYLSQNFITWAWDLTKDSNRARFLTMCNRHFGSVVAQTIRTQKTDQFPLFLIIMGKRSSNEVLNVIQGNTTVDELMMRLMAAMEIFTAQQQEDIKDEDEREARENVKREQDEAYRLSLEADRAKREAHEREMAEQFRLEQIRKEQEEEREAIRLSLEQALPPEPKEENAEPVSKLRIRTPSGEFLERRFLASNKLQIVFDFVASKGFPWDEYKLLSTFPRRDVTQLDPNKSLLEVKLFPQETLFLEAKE
UniProt Q9Y5Q8: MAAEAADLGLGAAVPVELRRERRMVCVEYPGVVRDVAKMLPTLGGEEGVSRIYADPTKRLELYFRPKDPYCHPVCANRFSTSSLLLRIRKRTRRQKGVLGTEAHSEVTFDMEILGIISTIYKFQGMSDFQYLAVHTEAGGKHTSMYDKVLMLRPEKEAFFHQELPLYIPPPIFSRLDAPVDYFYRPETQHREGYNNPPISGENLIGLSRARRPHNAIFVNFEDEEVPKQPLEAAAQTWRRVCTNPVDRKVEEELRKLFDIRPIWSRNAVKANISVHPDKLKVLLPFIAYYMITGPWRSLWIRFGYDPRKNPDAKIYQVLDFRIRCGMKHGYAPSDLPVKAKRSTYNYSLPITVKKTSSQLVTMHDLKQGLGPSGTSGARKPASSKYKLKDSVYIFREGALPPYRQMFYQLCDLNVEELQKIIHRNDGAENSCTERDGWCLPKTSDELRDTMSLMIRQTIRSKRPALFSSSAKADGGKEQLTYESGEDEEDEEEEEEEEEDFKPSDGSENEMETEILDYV
UniProt Q9Y2V2: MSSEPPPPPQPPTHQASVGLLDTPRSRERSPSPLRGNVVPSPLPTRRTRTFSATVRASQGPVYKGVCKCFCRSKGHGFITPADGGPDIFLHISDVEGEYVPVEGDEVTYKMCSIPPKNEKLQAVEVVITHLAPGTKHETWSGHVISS
UniProt Q9Y223: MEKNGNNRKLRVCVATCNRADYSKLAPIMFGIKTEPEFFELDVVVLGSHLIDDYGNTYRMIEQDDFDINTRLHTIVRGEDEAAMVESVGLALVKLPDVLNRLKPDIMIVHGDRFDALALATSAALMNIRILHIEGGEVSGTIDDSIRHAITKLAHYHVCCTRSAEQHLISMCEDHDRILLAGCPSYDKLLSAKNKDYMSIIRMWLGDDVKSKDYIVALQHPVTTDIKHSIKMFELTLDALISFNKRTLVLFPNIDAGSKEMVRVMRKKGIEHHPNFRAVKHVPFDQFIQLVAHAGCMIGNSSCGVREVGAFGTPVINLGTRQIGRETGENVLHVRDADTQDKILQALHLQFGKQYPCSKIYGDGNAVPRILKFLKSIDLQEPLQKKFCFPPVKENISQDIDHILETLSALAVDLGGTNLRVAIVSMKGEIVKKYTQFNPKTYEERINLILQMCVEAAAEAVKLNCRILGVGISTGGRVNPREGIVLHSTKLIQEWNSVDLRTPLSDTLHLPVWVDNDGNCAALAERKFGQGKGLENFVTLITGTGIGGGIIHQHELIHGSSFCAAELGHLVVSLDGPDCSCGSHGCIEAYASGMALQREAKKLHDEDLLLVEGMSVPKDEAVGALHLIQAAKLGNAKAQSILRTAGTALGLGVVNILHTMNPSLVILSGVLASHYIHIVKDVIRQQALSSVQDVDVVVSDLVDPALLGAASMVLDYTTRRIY
UniProt Q9Y3D2: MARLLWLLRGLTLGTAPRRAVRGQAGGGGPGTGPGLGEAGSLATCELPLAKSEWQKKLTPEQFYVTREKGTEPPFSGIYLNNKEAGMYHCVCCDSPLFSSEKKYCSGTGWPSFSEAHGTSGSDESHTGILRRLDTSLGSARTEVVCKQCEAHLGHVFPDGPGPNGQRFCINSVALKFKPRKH
UniProt Q9Y5B9, whole entry: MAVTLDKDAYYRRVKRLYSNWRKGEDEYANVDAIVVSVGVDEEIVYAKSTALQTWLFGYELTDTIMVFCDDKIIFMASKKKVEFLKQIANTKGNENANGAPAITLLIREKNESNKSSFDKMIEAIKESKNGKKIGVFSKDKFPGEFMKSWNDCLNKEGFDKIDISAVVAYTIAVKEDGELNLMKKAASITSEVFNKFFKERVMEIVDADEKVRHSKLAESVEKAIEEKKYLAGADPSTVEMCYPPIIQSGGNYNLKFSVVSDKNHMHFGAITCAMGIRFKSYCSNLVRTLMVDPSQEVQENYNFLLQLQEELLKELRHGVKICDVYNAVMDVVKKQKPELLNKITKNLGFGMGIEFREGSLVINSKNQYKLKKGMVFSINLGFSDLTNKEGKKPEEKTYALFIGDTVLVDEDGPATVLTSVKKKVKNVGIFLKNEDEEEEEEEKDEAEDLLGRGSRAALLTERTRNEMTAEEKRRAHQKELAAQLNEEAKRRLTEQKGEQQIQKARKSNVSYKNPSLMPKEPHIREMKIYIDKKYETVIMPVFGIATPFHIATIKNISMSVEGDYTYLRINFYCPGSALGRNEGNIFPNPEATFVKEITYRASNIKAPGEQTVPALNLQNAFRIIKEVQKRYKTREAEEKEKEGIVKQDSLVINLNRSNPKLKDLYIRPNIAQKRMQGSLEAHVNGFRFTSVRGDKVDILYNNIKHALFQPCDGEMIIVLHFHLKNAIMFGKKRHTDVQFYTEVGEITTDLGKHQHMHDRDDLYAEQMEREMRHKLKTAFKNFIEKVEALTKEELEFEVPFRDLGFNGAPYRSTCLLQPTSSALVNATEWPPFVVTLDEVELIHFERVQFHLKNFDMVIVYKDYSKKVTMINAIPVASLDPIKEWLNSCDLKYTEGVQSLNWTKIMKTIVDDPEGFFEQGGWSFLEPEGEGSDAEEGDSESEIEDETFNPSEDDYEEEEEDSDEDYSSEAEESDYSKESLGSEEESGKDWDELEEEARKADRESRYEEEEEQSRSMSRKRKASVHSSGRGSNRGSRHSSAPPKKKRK
UniProt Q9Y6Y8: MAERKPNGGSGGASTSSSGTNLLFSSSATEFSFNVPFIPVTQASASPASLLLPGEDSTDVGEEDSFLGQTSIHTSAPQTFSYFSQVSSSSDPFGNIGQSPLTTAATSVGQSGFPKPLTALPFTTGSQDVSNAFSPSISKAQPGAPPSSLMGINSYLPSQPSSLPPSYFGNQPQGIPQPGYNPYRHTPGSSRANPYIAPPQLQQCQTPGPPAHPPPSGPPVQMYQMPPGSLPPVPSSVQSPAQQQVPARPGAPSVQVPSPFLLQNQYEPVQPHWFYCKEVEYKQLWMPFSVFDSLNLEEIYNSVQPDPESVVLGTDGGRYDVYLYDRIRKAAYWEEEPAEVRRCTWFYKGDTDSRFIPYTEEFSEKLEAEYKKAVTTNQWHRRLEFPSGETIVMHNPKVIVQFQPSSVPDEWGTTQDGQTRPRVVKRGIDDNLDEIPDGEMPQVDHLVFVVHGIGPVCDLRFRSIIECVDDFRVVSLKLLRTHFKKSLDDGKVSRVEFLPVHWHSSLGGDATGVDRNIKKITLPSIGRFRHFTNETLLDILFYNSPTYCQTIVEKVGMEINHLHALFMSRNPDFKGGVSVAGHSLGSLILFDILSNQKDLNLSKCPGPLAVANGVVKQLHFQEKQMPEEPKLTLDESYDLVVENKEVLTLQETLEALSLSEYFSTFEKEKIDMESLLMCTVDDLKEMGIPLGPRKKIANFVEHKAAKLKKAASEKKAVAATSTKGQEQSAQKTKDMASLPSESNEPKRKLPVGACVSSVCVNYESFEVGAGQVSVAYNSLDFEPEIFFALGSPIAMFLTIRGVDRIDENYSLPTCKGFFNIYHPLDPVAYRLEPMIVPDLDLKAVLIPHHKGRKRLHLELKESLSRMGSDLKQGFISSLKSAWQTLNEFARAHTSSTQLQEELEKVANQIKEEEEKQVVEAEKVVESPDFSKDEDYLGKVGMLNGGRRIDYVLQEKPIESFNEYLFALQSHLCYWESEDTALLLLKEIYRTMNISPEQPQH
UniProt Q9Y2S2: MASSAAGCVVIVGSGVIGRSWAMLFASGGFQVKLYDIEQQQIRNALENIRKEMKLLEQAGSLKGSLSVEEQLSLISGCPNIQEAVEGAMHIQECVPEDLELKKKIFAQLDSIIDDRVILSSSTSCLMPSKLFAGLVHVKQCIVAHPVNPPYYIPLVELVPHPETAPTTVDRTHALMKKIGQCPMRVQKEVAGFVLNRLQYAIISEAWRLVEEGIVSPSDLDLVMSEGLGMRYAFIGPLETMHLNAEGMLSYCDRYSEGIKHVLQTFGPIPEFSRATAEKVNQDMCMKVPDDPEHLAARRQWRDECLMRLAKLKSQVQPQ
UniProt Q9Y3I1: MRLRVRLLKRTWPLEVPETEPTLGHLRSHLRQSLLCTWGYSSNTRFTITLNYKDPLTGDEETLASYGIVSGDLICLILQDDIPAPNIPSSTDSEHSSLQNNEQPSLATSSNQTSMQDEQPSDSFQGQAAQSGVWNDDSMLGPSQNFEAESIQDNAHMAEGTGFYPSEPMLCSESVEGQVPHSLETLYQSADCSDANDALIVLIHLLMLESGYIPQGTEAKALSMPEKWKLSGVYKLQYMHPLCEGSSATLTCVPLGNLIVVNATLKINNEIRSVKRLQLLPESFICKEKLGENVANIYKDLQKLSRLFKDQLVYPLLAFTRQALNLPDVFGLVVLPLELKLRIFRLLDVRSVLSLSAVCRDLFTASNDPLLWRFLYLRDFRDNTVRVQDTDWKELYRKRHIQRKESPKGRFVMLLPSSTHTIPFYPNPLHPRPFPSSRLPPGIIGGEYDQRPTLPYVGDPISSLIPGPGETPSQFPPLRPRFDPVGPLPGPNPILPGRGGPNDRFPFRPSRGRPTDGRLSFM
UniProt Q9UMX5: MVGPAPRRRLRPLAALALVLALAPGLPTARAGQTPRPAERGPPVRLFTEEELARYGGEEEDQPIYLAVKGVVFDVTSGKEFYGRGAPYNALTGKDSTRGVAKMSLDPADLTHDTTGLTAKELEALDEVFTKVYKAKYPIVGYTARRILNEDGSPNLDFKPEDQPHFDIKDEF
UniProt Q9UNZ2: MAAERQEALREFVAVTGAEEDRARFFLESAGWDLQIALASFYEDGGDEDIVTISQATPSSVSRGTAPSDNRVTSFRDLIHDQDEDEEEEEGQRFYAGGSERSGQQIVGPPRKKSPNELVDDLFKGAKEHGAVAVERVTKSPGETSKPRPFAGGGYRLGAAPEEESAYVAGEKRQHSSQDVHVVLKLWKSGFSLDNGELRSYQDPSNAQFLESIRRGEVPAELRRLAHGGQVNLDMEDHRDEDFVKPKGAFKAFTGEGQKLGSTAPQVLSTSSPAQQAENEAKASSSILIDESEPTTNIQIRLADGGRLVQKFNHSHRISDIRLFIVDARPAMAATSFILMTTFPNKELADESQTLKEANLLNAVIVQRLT

Compound: Nc1nc2c(ncn2[C@@H]2O[C@H](COP(=O)(O)OP(=O)(O)OP(=O)(O)O)[C@@H](O)[C@H]2O)c(=O)[nH]1 [guanosine triphosphate]
Experiment: NP40-soluble protein abundance relative to vehicle (solubility fold change) (ratio); higher = more soluble protein in presence of GTP
Outline: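 Values are fold changes against the detergent-processed vehicle, based on vsn-normalised intensities. Jurkat crude lysate was treated at eight concentrations from 0.1 to 10 mM (10 min at room temperature, then 3 min at 37 °C), solubilised with 0.8% NP40 and benzonase, ultracentrifuged and analysed by TMT-labelled LC-MS/MS over three independent experiments.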

Row | Target | NP40-soluble protein abundance (concentration: 0.1mM) | NP40-soluble protein abundance (concentration: 0.5mM) | NP40-soluble protein abundance (concentration: 1mM) | NP40-soluble protein abundance (concentration: 2mM) | NP40-soluble protein abundance (concentration: 4mM) | NP40-soluble protein abundance (concentration: 6mM) | NP40-soluble protein abundance (concentration: 8mM) | NP40-soluble protein abundance (concentration: 10mM)
1 | ZNF330 (UniProt Q9Y3S2) | 1.04 ± 0.054 | 1.01 ± 0.061 | 0.985 ± 0.072 | 0.962 ± 0.079 | 0.992 ± 0.072 | 0.976 ± 0.085 | 0.996 ± 0.066 | 0.953 ± 0.082
2 | SNX5 (UniProt Q9Y5X3) | 1.01 ± 0.022 | 0.964 ± 0.038 | 0.962 ± 0.023 | 0.911 ± 0.05 | 0.935 ± 0.048 | 0.916 ± 0.058 | 0.921 ± 0.033 | 0.875 ± 0.051
3 | UTP11 (UniProt Q9Y3A2) | 1.06 ± 0.12 | 1.08 ± 0.13 | 1.14 ± 0.047 | 1.2 ± 0.097 | 1.32 ± 0.12 | 1.31 ± 0.11 | 1.33 ± 0.11 | 1.51 ± 0.12
4 | RUVBL2 (UniProt Q9Y230) | 1.04 ± 0.025 | 1.09 ± 0.05 | 1.08 ± 0.08 | 1.11 ± 0.11 | 1.15 ± 0.13 | 1.15 ± 0.14 | 1.16 ± 0.14 | 1.11 ± 0.1
5 | COPS3 (UniProt Q9UNS2) | 0.991 ± 0.03 | 0.971 ± 0.016 | 0.983 ± 0.042 | 0.98 ± 0.052 | 0.99 ± 0.059 | 0.961 ± 0.059 | 0.958 ± 0.029 | 0.972 ± 0.051
6 | UniProt Q9Y224 | 0.975 ± 0.16 | 0.858 ± 0.058 | 1.12 ± 0.17 | 1.1 ± 0.048 | 1.05 ± 0.1 | 1.08 ± 0.1 | 0.955 ± 0.14 | 1.2 ± 0.23
7 | UniProt Q9UNN5 and related entries | 0.995 ± 0.081 | 0.997 ± 0.077 | 0.95 ± 0.099 | 0.945 ± 0.089 | 0.924 ± 0.092 | 0.915 ± 0.082 | 0.908 ± 0.081 | 0.876 ± 0.089
8 | UniProt Q9Y320 and related entries | 0.982 ± 0.018 | 0.962 ± 0.017 | 0.896 ± 0.015 | 0.883 ± 0.053 | 0.856 ± 0.067 | 0.849 ± 0.043 | 0.835 ± 0.064 | 0.799 ± 0.093
9 | UniProt Q9Y5Q8 and related entries | 1.05 ± 0.023 | 1.11 ± 0.083 | 1.05 ± 0.062 | 1.08 ± 0.064 | 1.06 ± 0.056 | 1.06 ± 0.053 | 1.06 ± 0.014 | 1.02 ± 0.061
10 | UniProt Q9Y2V2 and related entries | 0.887 ± 0.049 | 0.86 ± 0.075 | 0.96 ± 0.061 | 0.901 ± 0.079 | 0.876 ± 0.065 | 0.907 ± 0.11 | 0.899 ± 0.12 | 0.932 ± 0.054
11 | UniProt Q9Y223 and related entries | 1.09 ± 0.082 | 1.07 ± 0.082 | 0.98 ± 0.044 | 1.01 ± 0.097 | 1.01 ± 0.083 | 0.978 ± 0.082 | 0.931 ± 0.047 | 0.933 ± 0.043
12 | MSRB2 (UniProt Q9Y3D2) | 0.95 ± 0.026 | 1.06 ± 0.17 | 0.956 ± 0.12 | 1.04 ± 0.12 | 1.03 ± 0.12 | 1.01 ± 0.07 | 0.95716 ± 0.00017 | 1.03 ± 0.014
13 | UniProt Q9Y5T5 and related entries | 1.1 ± 0.037 | 1.1 ± 0.047 | 1.12 ± 0.033 | 1.23 ± 0.086 | 1.34 ± 0.15 | 1.44 ± 0.14 | 1.49 ± 0.22 | 1.58 ± 0.21
14 | SUPT16H (UniProt Q9Y5B9) | 1.02 ± 0.024 | 1.01 ± 0.027 | 0.975 ± 0.016 | 1 ± 0.054 | 1.07 ± 0.064 | 1.14 ± 0.11 | 1.23 ± 0.13 | 1.48 ± 0.18
15 | UniProt Q9Y2H1 | 1.07 ± 0.053 | 1.11 ± 0.1 | 0.999 ± 0.035 | 1.02 ± 0.12 | 0.984 ± 0.051 | 1 ± 0.086 | 0.983 ± 0.021 | 0.929 ± 0.089
16 | SEC23IP (UniProt Q9Y6Y8) | 0.939 ± 0.057 | 0.967 ± 0.053 | 0.944 ± 0.049 | 0.921 ± 0.051 | 0.915 ± 0.05 | 0.917 ± 0.04 | 0.913 ± 0.051 | 0.908 ± 0.05
17 | UniProt Q9Y2S2 and related entries | 1.09 ± 0.12 | 0.991 ± 0.11 | 0.974 ± 0.12 | 0.971 ± 0.11 | 0.948 ± 0.12 | 0.922 ± 0.13 | 0.946 ± 0.15 | 0.912 ± 0.18
18 | UniProt Q9Y3I1 and related entries | 1.04 ± 0.091 | 1.06 ± 0.2 | 0.951 ± 0.14 | 1.02 ± 0.23 | 1.01 ± 0.24 | 1.01 ± 0.21 | 0.921 ± 0.14 | 0.963 ± 0.15
19 | UniProt Q9Y3U8 and related entries | 0.976 ± 0.084 | 0.987 ± 0.01 | 1.04 ± 0.075 | 0.994 ± 0.14 | 0.921 ± 0.12 | 0.855 ± 0.09 | 0.514 ± 0.13 | 0.919 ± 0.16
20 | UniProt Q9Y3B7 and related entries | 0.921 ± 0.17 | 0.966 ± 0.19 | 1.21 ± 0.31 | 1.34 ± 0.25 | 1.32 ± 0.32 | 1.34 ± 0.31 | 1.21 ± 0.3 | 1.49 ± 0.5
21 | NENF (UniProt Q9UMX5) | 0.904 ± 0.016 | 0.856 ± 0.031 | 0.946 ± 0.056 | 0.9231 ± 0.0089 | 0.932 ± 0.02 | 0.927 ± 0.063 | 0.941 ± 0.093 | 1.01 ± 0.042
22 | IVNS1ABP (UniProt Q9Y6Y0) | 1.08 ± 0.048 | 1.15 ± 0.14 | 1.2 ± 0.2 | 1.26 ± 0.22 | 1.33 ± 0.24 | 1.33 ± 0.26 | 1.33 ± 0.28 | 1.27 ± 0.26
23 | SRPRB (UniProt Q9Y5M8) | 0.975 ± 0.055 | 0.983 ± 0.066 | 0.987 ± 0.061 | 0.94 ± 0.068 | 0.951 ± 0.053 | 0.957 ± 0.07 | 0.979 ± 0.066 | 0.962 ± 0.077
24 | YBX2 (UniProt Q9Y2T7) | 0.954 ± 0.17 | 0.984 ± 0.14 | 1.01 ± 0.088 | 1.02 ± 0.13 | 1.04 ± 0.17 | 1.01 ± 0.13 | 1.06 ± 0.095 | 1.09 ± 0.11
25 | UniProt Q9UNZ2 and related entries | 0.94 ± 0.067 | 0.926 ± 0.045 | 0.955 ± 0.071 | 0.9 ± 0.078 | 0.916 ± 0.083 | 0.909 ± 0.072 | 0.924 ± 0.067 | 0.914 ± 0.073
26 | ATP6V0A2 (UniProt Q9Y487) | 1.09 ± 0.048 | 1.16 ± 0.13 | 1.12 ± 0.094 | 1.21 ± 0.17 | 1.18 ± 0.1 | 1.17 ± 0.2 | 1.14 ± 0.2 | 1.14 ± 0.16

Full records as entered above.
UniProt Q9Y5T5 and related entries in the list: NP40-soluble protein abundance (concentration: 0.1mM): 1.1 ± 0.037; NP40-soluble protein abundance (concentration: 0.5mM): 1.1 ± 0.047; NP40-soluble protein abundance (concentration: 1mM): 1.12 ± 0.033; NP40-soluble protein abundance (concentration: 2mM): 1.23 ± 0.086; NP40-soluble protein abundance (concentration: 4mM): 1.34 ± 0.15; NP40-soluble protein abundance (concentration: 6mM): 1.44 ± 0.14; NP40-soluble protein abundance (concentration: 8mM): 1.49 ± 0.22; NP40-soluble protein abundance (concentration: 10mM): 1.58 ± 0.21
UTP11 (UniProt Q9Y3A2) in the list: NP40-soluble protein abundance (concentration: 0.1mM): 1.06 ± 0.12; NP40-soluble protein abundance (concentration: 0.5mM): 1.08 ± 0.13; NP40-soluble protein abundance (concentration: 1mM): 1.14 ± 0.047; NP40-soluble protein abundance (concentration: 2mM): 1.2 ± 0.097; NP40-soluble protein abundance (concentration: 4mM): 1.32 ± 0.12; NP40-soluble protein abundance (concentration: 6mM): 1.31 ± 0.11; NP40-soluble protein abundance (concentration: 8mM): 1.33 ± 0.11; NP40-soluble protein abundance (concentration: 10mM): 1.51 ± 0.12
